Data as given in PubChem BioAssay AID1224830 (NIAID, 2016).
Purpose: 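Genes whose knock-down alters the TNF-alpha reporter response to LPS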 (primary screen). Cell system: human THP-1 monocytic leukaemia cells, TNF dual-luciferase reporter clone, PMA-differentiated to macrophage-like cells. Reagent: siRNA pool against human genes, 50 nM. Timing: LPS for 4 h, given about 3 days after siRNA transfection. Conditions: bacterial LPS (TLR4 ligand), 10 ng/ml. Detection: 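TNF firefly reporter luminescence divided by renilla, normalised to the plate median, then turned into a robust z-score for each replicate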. Scale: TNF reporter robust z-score: higher = stronger TNF reporter response to LPS. Call rule: 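Each well counts as active if its z-score is over 2.8 or under -1.5; controls are left without a call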.
Here is one part, drawn at random, of about 18,000 reagents tested. About 2,900 of all reagents (16%) were called active. 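Calls are made per well; low scores hint the gene aids the LPS response, high scores that it dampens it.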 Unmarked entries are inactive. Repeated entries: four replicate wells of each siRNA pool.

gene	TNF reporter robust z-score
LLGL1 (GeneID 3996)	-0.99
LLGL1 (GeneID 3996)	-1
LLGL1 (GeneID 3996)	-1.02
LLGL1 (GeneID 3996)	0.3
AMIGO2 (GeneID 347902)	0.25
AMIGO2 (GeneID 347902)	1.07
AMIGO2 (GeneID 347902)	0.28
AMIGO2 (GeneID 347902)	0.76
LRRC59 (GeneID 55379)	1.12
LRRC59 (GeneID 55379)	-0.14
LRRC59 (GeneID 55379)	0.09
LRRC59 (GeneID 55379)	1.73
ACTR2 (GeneID 10097)	-1.71 (active)
ACTR2 (GeneID 10097)	-1.46
ACTR2 (GeneID 10097)	-1.69 (active)
ACTR2 (GeneID 10097)	-0.43
MBTPS2 (GeneID 51360)	-0.11
MBTPS2 (GeneID 51360)	0.46
MBTPS2 (GeneID 51360)	-0.07
MBTPS2 (GeneID 51360)	2
SLBP (GeneID 7884)	0.02
SLBP (GeneID 7884)	0.72
SLBP (GeneID 7884)	-0.22
SLBP (GeneID 7884)	0.3
ALOX5AP (GeneID 241)	-0.3
ALOX5AP (GeneID 241)	2.19
ALOX5AP (GeneID 241)	-0.33
ALOX5AP (GeneID 241)	-0.2
ALPG (GeneID 251)	0.58
ALPG (GeneID 251)	0.73
ALPG (GeneID 251)	0.78
ALPG (GeneID 251)	-0.3
TP53TG3 (GeneID 24150)	-1.43
TP53TG3 (GeneID 24150)	-0.56
TP53TG3 (GeneID 24150)	-0.7
TP53TG3 (GeneID 24150)	-0.64
HES7 (GeneID 84667)	-0.04
HES7 (GeneID 84667)	0.41
HES7 (GeneID 84667)	0.42
HES7 (GeneID 84667)	0.07
TOP1 (GeneID 7150)	0.25
TOP1 (GeneID 7150)	1.03
TOP1 (GeneID 7150)	0.83
TOP1 (GeneID 7150)	1.4
CEPT1 (GeneID 10390)	-1.5
CEPT1 (GeneID 10390)	-1.52 (active)
CEPT1 (GeneID 10390)	-1.24
CEPT1 (GeneID 10390)	-1.2
TMEM201 (GeneID 199953)	-0.24
TMEM201 (GeneID 199953)	-0.5
TMEM201 (GeneID 199953)	-0.35
TMEM201 (GeneID 199953)	-0.44
CA9 (GeneID 768)	0.14
CA9 (GeneID 768)	0.28
CA9 (GeneID 768)	-0.73
CA9 (GeneID 768)	-1.2
CPE (GeneID 1363)	-0.39
CPE (GeneID 1363)	0.98
CPE (GeneID 1363)	1.3
CPE (GeneID 1363)	-0.12
SIGLEC5 (GeneID 8778)	0.28
SIGLEC5 (GeneID 8778)	1.39
SIGLEC5 (GeneID 8778)	-0.09
SIGLEC5 (GeneID 8778)	2.54
LHB (GeneID 3972)	0.33
LHB (GeneID 3972)	-0.13
LHB (GeneID 3972)	-1.02
LHB (GeneID 3972)	-0.2
RGS9BP (GeneID 388531)	-0.97
RGS9BP (GeneID 388531)	-0.85
RGS9BP (GeneID 388531)	-1.35
RGS9BP (GeneID 388531)	-0.07
OR5P3 (GeneID 120066)	-0.41
OR5P3 (GeneID 120066)	0.52
OR5P3 (GeneID 120066)	0.9
OR5P3 (GeneID 120066)	1.27
CCDC33 (GeneID 80125)	-1.02
CCDC33 (GeneID 80125)	-1.83 (active)
CCDC33 (GeneID 80125)	-1.56 (active)
CCDC33 (GeneID 80125)	-1.17
PPRC1 (GeneID 23082)	0.83
PPRC1 (GeneID 23082)	2.14
PPRC1 (GeneID 23082)	0.58
PPRC1 (GeneID 23082)	2.75
PFKL (GeneID 5211)	0.69
PFKL (GeneID 5211)	1.51
PFKL (GeneID 5211)	3.41 (active)
PFKL (GeneID 5211)	0.89
TLK2 (GeneID 11011)	0.57
TLK2 (GeneID 11011)	0.86
TLK2 (GeneID 11011)	1.23
TLK2 (GeneID 11011)	2.58
TM4SF5 (GeneID 9032)	-0.58
TM4SF5 (GeneID 9032)	-0.3
TM4SF5 (GeneID 9032)	-0.49
TM4SF5 (GeneID 9032)	-0.88
CTR9 (GeneID 9646)	-0.71
CTR9 (GeneID 9646)	-1.01
CTR9 (GeneID 9646)	-0.28
CTR9 (GeneID 9646)	-0.6
CORO2A (GeneID 7464)	1.73
CORO2A (GeneID 7464)	2.39
CORO2A (GeneID 7464)	-0.75
CORO2A (GeneID 7464)	2.91 (active)
MRPL14 (GeneID 64928)	0.3
MRPL14 (GeneID 64928)	-0.43
MRPL14 (GeneID 64928)	-0.89
MRPL14 (GeneID 64928)	0.09
ESYT2 (GeneID 57488)	-0.67
ESYT2 (GeneID 57488)	-1.24
ESYT2 (GeneID 57488)	-1.08
ESYT2 (GeneID 57488)	0.11

Laid out differently: 7 of the entries above
gene | TNF reporter robust z-score
CEPT1 (GeneID 10390) | -1.2
TMEM201 (GeneID 199953) | -0.24
TMEM201 (GeneID 199953) | -0.5
TMEM201 (GeneID 199953) | -0.35
TMEM201 (GeneID 199953) | -0.44
CA9 (GeneID 768) | 0.14
CA9 (GeneID 768) | 0.28
